Laboratory results as given in publication doi:10.1101/2025.04.28.651057.
These are yes or no findings as the source states them, for the method shown. In cells and extracts the contact can be indirect. Some entries that bind do so weakly or less than the wild type. For some of these results: Sequences can lack the tags named with a protein.

Chains of the proteins cited; added tags and fusions are not shown. Lines headed by an entry give the natural chain unless they say otherwise; changes in a name come on top.
UniProt Q8VDZ4, whole entry, looked up, stated change not applied: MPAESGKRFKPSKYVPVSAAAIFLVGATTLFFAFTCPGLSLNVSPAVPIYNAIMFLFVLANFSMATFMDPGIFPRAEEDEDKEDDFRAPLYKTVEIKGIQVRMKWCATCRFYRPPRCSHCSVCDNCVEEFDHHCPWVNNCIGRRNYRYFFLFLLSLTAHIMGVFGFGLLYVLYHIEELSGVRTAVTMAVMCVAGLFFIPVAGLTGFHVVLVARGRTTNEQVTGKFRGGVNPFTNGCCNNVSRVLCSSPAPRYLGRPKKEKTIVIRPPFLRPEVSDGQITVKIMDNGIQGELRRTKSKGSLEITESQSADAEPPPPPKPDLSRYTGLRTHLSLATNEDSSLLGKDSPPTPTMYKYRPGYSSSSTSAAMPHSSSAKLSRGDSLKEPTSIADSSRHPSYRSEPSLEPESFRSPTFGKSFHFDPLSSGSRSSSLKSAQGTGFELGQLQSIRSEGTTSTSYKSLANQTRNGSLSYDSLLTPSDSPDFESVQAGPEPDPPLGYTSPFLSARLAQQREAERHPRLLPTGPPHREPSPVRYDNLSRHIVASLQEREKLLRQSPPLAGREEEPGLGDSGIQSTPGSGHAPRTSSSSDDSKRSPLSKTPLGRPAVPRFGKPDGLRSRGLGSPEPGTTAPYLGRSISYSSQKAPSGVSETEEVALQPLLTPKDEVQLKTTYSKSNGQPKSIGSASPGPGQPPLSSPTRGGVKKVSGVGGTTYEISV
UniProt Q7Z5G4, whole entry: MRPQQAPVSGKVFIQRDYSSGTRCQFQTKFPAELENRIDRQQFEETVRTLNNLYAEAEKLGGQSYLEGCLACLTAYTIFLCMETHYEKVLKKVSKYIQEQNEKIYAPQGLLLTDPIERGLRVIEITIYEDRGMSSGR

Legend:
Assay in all cases: co-IP
[1] = target: T1, HA-Zdhhc1 (mouse) (mouse) (UniProt Q8R0N9)
T1 sequence: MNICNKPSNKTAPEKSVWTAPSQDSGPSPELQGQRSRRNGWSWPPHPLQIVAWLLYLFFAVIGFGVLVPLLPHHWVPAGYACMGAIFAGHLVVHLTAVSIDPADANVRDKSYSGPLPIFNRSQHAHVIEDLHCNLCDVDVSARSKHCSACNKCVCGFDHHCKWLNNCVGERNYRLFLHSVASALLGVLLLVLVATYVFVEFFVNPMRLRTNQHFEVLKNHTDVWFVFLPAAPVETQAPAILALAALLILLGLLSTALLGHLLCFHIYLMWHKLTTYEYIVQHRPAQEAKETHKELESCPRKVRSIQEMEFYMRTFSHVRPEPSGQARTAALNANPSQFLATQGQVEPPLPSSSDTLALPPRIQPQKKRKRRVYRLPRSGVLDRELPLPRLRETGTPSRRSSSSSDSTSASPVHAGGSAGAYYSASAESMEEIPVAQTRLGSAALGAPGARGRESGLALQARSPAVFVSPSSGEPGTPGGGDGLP

[2] = target: T2, HA-Zdhhc18 (mouse) (mouse) (UniProt Q5Y5T2)
T2 sequence: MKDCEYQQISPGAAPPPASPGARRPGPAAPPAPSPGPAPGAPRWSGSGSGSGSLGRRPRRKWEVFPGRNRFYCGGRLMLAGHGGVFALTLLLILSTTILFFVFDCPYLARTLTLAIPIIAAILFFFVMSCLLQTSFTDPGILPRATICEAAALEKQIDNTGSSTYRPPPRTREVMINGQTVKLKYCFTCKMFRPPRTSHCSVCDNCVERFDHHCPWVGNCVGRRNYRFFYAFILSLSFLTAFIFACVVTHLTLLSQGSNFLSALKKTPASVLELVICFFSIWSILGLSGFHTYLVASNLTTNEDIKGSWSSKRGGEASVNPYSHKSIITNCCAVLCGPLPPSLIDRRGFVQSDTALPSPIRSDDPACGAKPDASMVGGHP

[3] = target: T3, HA-Zdhhc21 (mouse) (mouse) (UniProt Q9D270)
T3 sequence: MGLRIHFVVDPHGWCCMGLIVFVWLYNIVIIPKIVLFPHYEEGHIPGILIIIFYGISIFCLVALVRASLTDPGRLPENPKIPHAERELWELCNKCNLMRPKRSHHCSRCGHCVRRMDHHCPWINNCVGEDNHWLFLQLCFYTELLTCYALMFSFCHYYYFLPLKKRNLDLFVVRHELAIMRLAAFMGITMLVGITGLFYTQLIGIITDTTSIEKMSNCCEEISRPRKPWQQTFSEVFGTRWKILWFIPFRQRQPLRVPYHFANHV

[4] = target: HA-Zdhhc5^ΔDHHC (Δ104-154) (mouse) (UniProt Q8VDZ4)

binding [1]: binds
binding [2]: binds
binding [3]: no binding
binding [4]: no binding
Substance: endogenous human GOLGA7 (from UniProt Q7Z5G4 1-137)
